From PMC8803112
No constants are given. Whether binding was seen depends on the method and setting. In cells and extracts the contact can be indirect. Here binding means that the protein was enriched with, or labelled near, the bait; the list need not be complete.

By UniProt entry, the sequences of proteins in these tests, tags left out. Residues count along the entry.
UniProt P04003, residues 49-597: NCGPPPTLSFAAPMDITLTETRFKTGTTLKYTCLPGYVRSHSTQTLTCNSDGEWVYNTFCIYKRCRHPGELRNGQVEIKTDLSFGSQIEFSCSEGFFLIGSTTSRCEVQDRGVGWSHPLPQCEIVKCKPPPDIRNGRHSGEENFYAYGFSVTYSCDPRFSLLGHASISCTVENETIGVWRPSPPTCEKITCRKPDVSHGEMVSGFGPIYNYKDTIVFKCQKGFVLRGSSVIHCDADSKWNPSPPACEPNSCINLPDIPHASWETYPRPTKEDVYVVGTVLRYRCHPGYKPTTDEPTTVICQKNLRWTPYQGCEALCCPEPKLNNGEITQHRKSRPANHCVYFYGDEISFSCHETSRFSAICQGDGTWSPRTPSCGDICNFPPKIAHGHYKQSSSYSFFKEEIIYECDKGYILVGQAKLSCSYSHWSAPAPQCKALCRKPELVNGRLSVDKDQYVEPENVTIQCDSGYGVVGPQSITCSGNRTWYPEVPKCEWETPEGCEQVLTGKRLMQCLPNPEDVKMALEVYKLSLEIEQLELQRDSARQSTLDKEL
UniProt P02675, residues 45-491: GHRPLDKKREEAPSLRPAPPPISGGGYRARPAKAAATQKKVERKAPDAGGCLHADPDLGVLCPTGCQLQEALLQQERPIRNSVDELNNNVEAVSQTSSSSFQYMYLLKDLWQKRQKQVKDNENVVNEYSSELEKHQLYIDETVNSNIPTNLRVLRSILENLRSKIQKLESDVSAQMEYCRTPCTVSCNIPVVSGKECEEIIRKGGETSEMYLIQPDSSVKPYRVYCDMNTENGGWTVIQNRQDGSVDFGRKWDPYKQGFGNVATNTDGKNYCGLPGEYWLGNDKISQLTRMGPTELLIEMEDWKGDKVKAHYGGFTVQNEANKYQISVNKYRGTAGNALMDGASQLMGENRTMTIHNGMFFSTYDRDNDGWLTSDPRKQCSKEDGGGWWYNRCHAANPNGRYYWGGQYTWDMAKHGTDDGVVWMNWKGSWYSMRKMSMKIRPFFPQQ

B1: Fibulin-1 (protein, UniProt P23142 30-703)
chain: DVLLEACCADGHRMATHQKDCSLPYATESKECRMVQEQCCHSQLEELHCATGISLANEQDRCATPHGDNASLEATFVKRCCHCCLLGRAAQAQGQSCEYSLMVGYQCGQVFQACCVKSQETGDLDVGGLQETDKIIEVEEEQEDPYLNDRCRGGGPCKQQCRDTGDEVVCSCFVGYQLLSDGVSCEDVNECITGSHSCRLGESCINTVGSFRCQRDSSCGTGYELTEDNSCKDIDECESGIHNCLPDFICQNTLGSFRCRPKLQCKSGFIQDALGNCIDINECLSISAPCPIGHTCINTEGSYTCQKNVPNCGRGYHLNEEGTRCVDVDECAPPAEPCGKGHRCVNSPGSFRCECKTGYYFDGISRMCVDVNECQRYPGRLCGHKCENTLGSYLCSCSVGFRLSVDGRSCEDINECSSSPCSQECANVYGSYQCYCRRGYQLSDVDGVTCEDIDECALPTGGHICSYRCINIPGSFQCSCPSSGYRLAPNGRNCQDIDECVTGIHNCSINETCFNIQGGFRCLAFECPENYRRSAATLQQEKTDTVRCIKSCRPNDVTCVFDPVHTISHTVISLPTFREFTRPEEIIFLRAITPPHPASQANIIFDITEGNLRDSFDIIKRYMDGMTVGVVRQVRPIVGPFHAVLKLEMNYVVGGVVSHRNVVNVHIFVSEYWF

Target: complement evasion factor (CEF), recombinant Spy0136 (Streptococcus pyogenes SF370) (UniProt Q9A1R6)
Experiment: affinity purification with mass spectrometry; rCEF coupled to CNBr-activated sepharose 4B; 100 µl fresh human plasma diluted to 500 µl in TSA buffer (10 mM Tris-HCl pH 8.0, 140 mM NaCl), 4°C 30 min; washed three times with RIPA buffer (500 mM NaCl); reducing SDS-PAGE, Coomassie bands cut out, LC-MS/MS; uncoupled beads as negative control; only the target purified

Molecule	binding
C4BPA (from human plasma) (from UniProt P04003 49-597)	binds
fibrinogen β-chain (from UniProt P02675 45-491)	binds
B1	binds
